This experiment concerns the target Hop (endogenous) (human (endogenous in HEK293T)) (UniProt P31948). Description: co-IP; Hop IP from WT HEK293T cells: 2-3 mg cell extract with 5 µg anti-Hop antibodies, Dynabeads-Protein G, 4 °C; lysis buffer 10 mM Tris-HCl pH 7.5, 50 mM NaCl, 1 mM EDTA, 1 mM DTT, 10% glycerol, 10 mM Na-molybdate, 0.01% Triton X-100; normal IgG as control; immunoblot. On the technique in general: A western blot detects proteins with antibodies after separation by electrophoresis.

Protein sequences, listed by entry. Tags and fused reporters are not part of them.
UniProt Q13200: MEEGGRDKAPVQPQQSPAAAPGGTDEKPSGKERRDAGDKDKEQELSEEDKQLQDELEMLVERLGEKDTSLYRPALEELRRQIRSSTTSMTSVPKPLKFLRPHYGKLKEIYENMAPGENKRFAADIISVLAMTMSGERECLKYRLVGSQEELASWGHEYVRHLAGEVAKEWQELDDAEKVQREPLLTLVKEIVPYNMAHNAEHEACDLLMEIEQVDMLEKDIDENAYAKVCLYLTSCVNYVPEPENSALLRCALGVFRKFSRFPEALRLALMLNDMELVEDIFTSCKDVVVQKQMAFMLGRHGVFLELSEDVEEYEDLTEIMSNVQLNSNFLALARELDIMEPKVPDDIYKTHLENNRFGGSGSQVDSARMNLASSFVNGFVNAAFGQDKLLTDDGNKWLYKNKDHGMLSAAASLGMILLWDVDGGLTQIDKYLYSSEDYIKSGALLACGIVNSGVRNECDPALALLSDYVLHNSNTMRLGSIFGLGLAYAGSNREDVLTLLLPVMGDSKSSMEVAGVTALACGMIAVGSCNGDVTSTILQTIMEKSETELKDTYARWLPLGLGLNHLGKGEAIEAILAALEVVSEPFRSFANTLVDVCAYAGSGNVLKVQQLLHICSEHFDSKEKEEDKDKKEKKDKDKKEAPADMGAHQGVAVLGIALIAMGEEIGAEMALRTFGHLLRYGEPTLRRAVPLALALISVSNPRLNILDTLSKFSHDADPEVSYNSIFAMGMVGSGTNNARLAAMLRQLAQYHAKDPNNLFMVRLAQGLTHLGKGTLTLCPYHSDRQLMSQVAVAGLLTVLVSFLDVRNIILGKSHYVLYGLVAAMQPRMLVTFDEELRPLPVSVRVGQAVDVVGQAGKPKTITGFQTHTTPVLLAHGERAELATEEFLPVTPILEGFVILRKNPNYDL
UniProt Q15008: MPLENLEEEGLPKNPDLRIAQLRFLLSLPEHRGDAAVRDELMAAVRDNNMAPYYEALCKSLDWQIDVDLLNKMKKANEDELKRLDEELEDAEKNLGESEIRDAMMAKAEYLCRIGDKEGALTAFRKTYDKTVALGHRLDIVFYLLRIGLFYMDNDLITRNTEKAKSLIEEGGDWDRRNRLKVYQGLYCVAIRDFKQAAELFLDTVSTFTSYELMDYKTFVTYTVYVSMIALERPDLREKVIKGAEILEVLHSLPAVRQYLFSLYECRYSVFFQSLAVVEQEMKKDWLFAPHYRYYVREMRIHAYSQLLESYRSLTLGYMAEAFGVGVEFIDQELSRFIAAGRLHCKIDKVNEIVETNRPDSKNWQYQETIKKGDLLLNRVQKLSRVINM

Results are given in words; binding and its absence hold for the method and conditions named. In cells and extracts the contact can be indirect. Some entries that bind do so weakly or less than the wild type.

Turning to Psmd2 (from UniProt Q13200 1-908), the binding entry was “binds”.
Next, Psmd6 (from UniProt Q15008 1-389): “binds”.

Values taken from paper PMC7688965.
